Patent US20110275644A1, “BIOLOGICAL MARKERS PREDICTIVE OF ANTI-CANCER RESPONSE TO INSULIN-LIKE GROWTH FACTOR-1 RECEPTOR KINASE INHIBITORS” (priority 2010, published 2011)
Some results were stated once for a whole list of compounds, not compound by compound.

Assay: body weight in xenograft efficacy studies
Format: in vivo, nu/nu CD-1 mice
Conditions: GEO and SK-N-AS xenograft studies

With `C[C@]1(O)C[C@@H](c2nc(-c3ccc4ccc(-c5ccccc5)nc4c3)c3c(N)nccn32)C1` [OSI-906, cis-3-[8-amino-1-(2-phenyl-quinolin-7-yl)-imidazo[1,5-a]pyrazin-3-yl]-1-methyl-cyclobutanol] the body weight loss was < 10%.
